Measurements published in patent publication US9238040B2, “Chemoprevention of colorectal cancer by mesalamine/sulfasalazine” (RUTGERS, THE STATE UNIVERSITY OF NEW JERSEY, priority 2005, dated 2016).
Some of these results come from one statement about several compounds together.

System: LS180 colon cancer cells
Assay: Viability of LS180 colon cancer cells after incubation
Assay type: cell-based, human
Settings: LS180 cells, 0, 1 mM and 2 mM in Serum Free Media for 2 hrs, 4 hrs and 24 hrs

Structure (SMILES) | cell viability [%]
O=C(O)c1cc(/N=N/c2ccc(S(=O)(=O)Nc3ccccn3)cc2)ccc1O [SASP, sulfasalazine] | > 90
Nc1ccc(O)c(C(=O)O)c1 [5-ASA, 5-Aminosalicylic Acid] | > 90
